Results are given in words; binding and its absence hold for the method and conditions named. In cells and extracts the contact can be indirect. Some binding calls cover weakened binding; strength is not graded here. Tags and fused reporters may be left off the sequences shown.

For this experiment, the target named is c-Raf (UniProt P04049). The experiment is described as follows: co-immunoprecipitation of FAM83A-FLAG from T4-2 cell lysates, western blot with anti-c-Raf antibody. In general terms: Immunoblotting shows a protein as a band on a membrane.

B1: FLAG-tagged FAM83A (protein, not shown: small tags and cut ends)
chain: MSRSRHLGKIRKRLEDVKSQWVRPARADFSDNESARLATDALLDGGSEAYWRVLSQEGEVDFLSSVEAQYIQAQAREPPCPPDTLGGAEAGPKGLDSSSLQSGTYFPVASEGSEPALLHSWASAEKPYLKEKSSATVYFQTVKHNNIRDLVRRCITRTSQVLVILMDVFTDVEIFCDILEAANKRGVFVCVLLDQGGVKLFQEMCDKVQISDSHLKNISIRSVEGEIYCAKSGRKFAGQIREKFIISDWRFVLSGSYSFTWLCGHVHRNILSKFTGQAVELFDEEFRHLYASSKPVMGLKSPRLVAPVPPGAAPANGRLSSSSGSASDRTSSNPFSGRSAGSHPGTRSVSASSGPCSPAAPHPPPPPRFQPHQGPWGAPSPQAHLSPRPHDGPPAAVYSNLGAYRPTRLQLEQLGLVPRLTPTWRPFLQASPHF
modifications: tyrosine-phosphorylated on EGF stimulation; sites not given
For the molecule B1, the binding result was “binds”.

For the origin of these results see patent publication US20120094843A1.
